A: 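Primary screen of methionyl-tRNA synthetase; the read-out is not stated. Target: Methionyl-tRNA synthetase (putative), Leishmania donovani (UniProt E9BF75). The test concentration is not given. Values are per cent inhibition. Of about 68,000 compounds tested this way, about 24 (0.035%) reached 50% or more in at least one test.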
B: 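Assay on Mycobacterium tuberculosis, filed only as a heat shock assay from Cornell; the read-out is not stated. The concentration is filed as 10 mM, unlikely as a test dose, so the dose is not known. Higher reads as stronger inhibition (inferred: compounds with an IC50 in retests scored well above the rest). Size under these conditions: about 69,000 compounds, about 930 of them at 50% or above in at least one test.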

The chains behind the UniProt entries cited, without tags or fusion partners.
UniProt E9BF75, entry or part of it: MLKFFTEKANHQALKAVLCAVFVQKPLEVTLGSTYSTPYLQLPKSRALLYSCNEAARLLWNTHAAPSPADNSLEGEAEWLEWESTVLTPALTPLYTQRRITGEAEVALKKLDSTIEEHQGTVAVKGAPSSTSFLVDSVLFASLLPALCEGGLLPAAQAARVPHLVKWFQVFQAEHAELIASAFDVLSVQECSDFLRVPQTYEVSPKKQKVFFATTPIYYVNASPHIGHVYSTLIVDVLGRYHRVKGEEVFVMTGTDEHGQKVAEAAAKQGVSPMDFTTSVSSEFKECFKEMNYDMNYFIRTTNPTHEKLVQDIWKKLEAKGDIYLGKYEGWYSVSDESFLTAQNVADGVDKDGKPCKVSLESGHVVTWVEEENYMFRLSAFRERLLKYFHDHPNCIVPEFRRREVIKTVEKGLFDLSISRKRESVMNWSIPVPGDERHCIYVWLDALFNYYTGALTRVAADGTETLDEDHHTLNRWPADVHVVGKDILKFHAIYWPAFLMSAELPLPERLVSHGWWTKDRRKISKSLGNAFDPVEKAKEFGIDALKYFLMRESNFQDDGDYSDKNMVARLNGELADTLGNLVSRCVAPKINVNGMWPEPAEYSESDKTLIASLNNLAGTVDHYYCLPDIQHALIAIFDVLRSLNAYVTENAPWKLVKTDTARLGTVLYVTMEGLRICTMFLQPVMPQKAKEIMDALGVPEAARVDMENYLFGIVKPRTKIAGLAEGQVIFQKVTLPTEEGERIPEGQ

All values are in %.
The record does not define 0% and 100%; most values in the screen are far below 50% and negative numbers occur (in some assays of this library far below -100).
The compounds are a random part of those screened.
A dash means the value is not listed here; it may have been measured.

SMILES	A	B
COc1cc2c(cc1CN1CCn3c(CO)nnc3C1)CCC2.O=C(O)CC(O)(CC(=O)O)C(=O)O	-	0.8324%
COc1ccc(F)c(-c2cc(C(=O)NC3CC3)ccn2)c1	14.8%	-106.1%
O=C1NC[C@H]2CN(Cc3ccnc4ccccc34)CCN12	11.4%	-
O=S(=O)(N1CCCC1)N1CCc2sccc2C1	17.08%	-19.27%
COc1ccc(C2(c3nc(-c4cnn(C)c4)no3)CCOCC2)cc1	12.78%	0.06539%
[H][C@]12CCC[C@@]1(COCc1ccccn1)CN(C(=O)c1cscn1)C2	-	12.18%
Cc1cc(C(=O)N2CCC3(CC2)CC(c2cccnc2)C(=O)N3)no1 (stereo unspecified)	15.95%	-
CC1CN(C)CCN1Cc1cccc(C(=O)NCc2ccco2)c1 (stereo unspecified)	3.631%	-7.694%
COCCN1C(=O)CCC12CCCN(Cc1ccccc1F)C2 (stereo unspecified)	8.889%	-
CCC(CO)N(C/C(C)=C/c1ccco1)Cc1ccco1 (stereo unspecified)	20.5%	-18.11%
CC(C)(C)c1cc(CN2C[C@@H]3CC[C@H](C2)N(Cc2ccccn2)C3)n[nH]1	15.35%	-
O=C1C(CS(=O)(=O)Nc2ccccc2)=NC(=O)n2cccc21	8.788%	-27.85%
CCCN1CCCC2(CCN(S(=O)(=O)c3cc(C)nn3CC)C2)C1=O (stereo unspecified)	15.84%	-9.555%
CCCc1nc(NCCc2ccccc2)c2c(n1)c(C)nn2CC	10.31%	91.68%
Cc1cnn(CC2CCCN2Cc2nccn2CC(F)(F)F)c1 (stereo unspecified)	10.93%	101.7%
COCCN(C)C[C@@H]1CN(C(=O)c2ccc(C)cc2)C[C@@H]1CO	10.7%	21.87%
CN1CCCC1CNC(=O)CCCOc1ccc(Br)cc1 (stereo unspecified)	11.48%	-9.803%
[H][C@@]12CS(=O)(=O)C[C@]1([H])N(Cc1ncc[nH]1)CCN2Cc1ccc(CC)cn1	-	-13.94%
Cn1cc(N2CC3(CCN(Cc4ccccc4)CC3)OCC2=O)cn1.O=C(O)C(F)(F)F	-	-20.99%
CC(C)(C)OCC1CN(Cc2cccs2)S(=O)(=O)c2cnccc2O1 (stereo unspecified)	5.676%	3.243%
Cc1nn(C)c(N2CCOCC2)c1CNC1CCC(O)CC1 (stereo unspecified)	23.94%	-7.887%
CNc1nc(CNC(=O)Nc2cccc(Cl)c2Cl)cs1	16.94%	-5.636%
CC(C)NC(=O)Nc1ccccc1CN1CCOCC1	10.68%	-17.04%
CS(=O)(=O)N1CCC(CNc2c(Cl)cccc2C#N)CC1	19.05%	6.351%
O=C(O)C(=O)O.c1csc(-c2noc(C3CN(Cc4ccc5c(c4)CCO5)C3)n2)c1	-	6.271%
Cc1nc(C(=O)N2CCCCC2)nn1-c1ccccc1Cl	18.29%	14.18%
N#Cc1ccc(CN(CC(N)=O)C2CCCC2)cc1	8.011%	2.288%
Cc1ncc(S(=O)(=O)Nc2ccnn2C(C)C)[nH]1	11.6%	-3.453%
COCc1nc(CNc2cccc(-c3nc(C)c(C)o3)c2)cs1	14.43%	-8.345%
CCc1noc(C(C)N(C)CC(=O)Nc2c(C)cccc2C)n1 (stereo unspecified)	9.36%	-3.535%
CCN(CC1CN(Cc2ncc[nH]2)CCO1)c1cccnn1 (stereo unspecified)	9.756%	-7.75%
CCN(CC)c1ncc2c(O)nc(C3CCNCC3)cc2n1	19.37%	-4.834%
O=C1NCC2(CCCN(C(=O)Nc3cccc(-c4cscn4)c3)CC2)O1 (stereo unspecified)	-5.575%	38.3%
Cc1noc(C)c1CN1Cc2ccnn2CC(C(=O)NCC2CC2)C1 (stereo unspecified)	9.841%	-
COCC1CN(c2ccncn2)Cc2cnn(CC3CCCC3)c21 (stereo unspecified)	5.229%	-
CC(C)c1nn(C)c(N2CCOCC2)c1CN[C@H](C)CO	15.75%	2.754%
[H][C@@]12CCCO[C@]1([H])[C@H](NC(=O)CC1CC1)CN(C(=O)c1cccs1)C2	-	1.539%
COCCCN1CCC(NC2CSCCc3ccccc32)CC1 (stereo unspecified)	10.45%	24.73%
Cn1cncc1CNC1CC2(CCN(CC3CC3)CC2)c2ccccc21.O=C(O)C(F)(F)F.O=C(O)C(F)(F)F (stereo unspecified)	-	-19.73%
COc1ccc(CN2CCC(CO)(Cc3ccc(Cl)cc3)CC2)c(O)c1	8.591%	9.048%
O=C(CCCn1cncn1)N1CCC2(CCCNC2=O)C1 (stereo unspecified)	14.84%	-5.44%
COc1cccc2c1ccn2CC(=O)N[C@@H](CCSC)C(=O)O	12.03%	-14.64%
CCC(C(=O)N(C)Cc1cc(-c2ccccc2)n[nH]1)n1cccn1 (stereo unspecified)	0%	-8.85%
Cc1cccc(CO[C@@H]2CC[C@H]3[C@H]2OCCN3Cc2ccsc2)n1	14.64%	-
O=C(O)C(F)(F)F.[H][C@@]12CCN(Cc3ccco3)[C@@]1([H])CCC(=O)N2	-	9.652%
Clc1ccc(CN2CCc3c(ncn3C3CC3)C2)c2ncccc12	19.38%	-43.03%
Nc1ccc(CC2COc3ccccc3C2)cn1 (stereo unspecified)	5.587%	-12.21%
Cc1ccc(CN2C(=O)CC[C@]23CC[C@@H](NC2CCOC2)CC3)cc1 (stereo partly specified)	13.89%	-
CC(=O)c1cccc(CN2CCCC23CCN(c2ccccn2)CC3)c1	24.77%	-5.605%
[H][C@@]12OCCN(CCN3CCCCC3)[C@@]1([H])CC[C@@H]2OCc1ccccn1	-	-25.96%
CCC(=O)NCc1cc(C2CC2)n(C2CCCC2)n1	-2.158%	-16.23%
CC[C@@H](CO)NC(=O)c1coc(COc2ccc3sc(C)nc3c2)n1	10.7%	11.77%
O=C(O)C(F)(F)F.O=C(O)C(F)(F)F.c1cncc(CN2Cc3nccn3CC(Cn3cccn3)C2)c1 (stereo unspecified)	-	10.87%
[H][C@@]12CN(c3nc(C)cnc3C)C[C@]1([H])N(C1CCCC1)C(=O)O2	-	0.7574%
Cc1cc(C(=O)CN2CCN(c3ncccn3)CC2)c(C)n1C(C)C	3.753%	-19.32%
NC(=O)NCCC(=O)N1CCC(c2cc(-c3ccccc3Cl)n[nH]2)CC1	13.73%	-6.279%
Cn1cccc1C(=O)N1C[C@H]2CN(Cc3cccc(F)c3)C[C@H]2C1	12.32%	-
COCCO[C@H]1CCN(c2cc(OC)ncn2)[C@H]1Cc1ccncc1	15.07%	14.45%
O=C(Cc1cccs1)NCC1(O)CCc2ccccc2C1 (stereo unspecified)	8.696%	9.338%

Source: ChEMBL document CHEMBL3988442, “University of Dundee, Small-Polar-MMV Screening Library” (2021).